# Laboratory results from publication PMC6069705.
# Results are given in words; binding and its absence hold for the method and conditions named. Binding seen in cells or lysates may run through a third protein. Binding can be weak; no strength is given.
# Target: human tau P301S (PS19 transgene) (human)
# Assay: co-IP; tau immunoprecipitated from 1 mg brain lysate of 6 month old PS19 mice (IP lysis buffer, 1% NP-40, 0.15 M NaCl, pH 7.4, with RNase inhibitor) with 10 ug Tau13 on Protein G Dynabeads, overnight at 4 C; normal mouse IgG as control; immunoblot
binder,measurement,value
"HNRNPA0 (protein, UniProt Q9CX86 1-305) MENSQLCKLFIGGLNVQTSESGLRGHFEAFGTLTDCVVVVNPQTKRSRCFGFVTYSNVEEADAAMAASPHAVDGNTVELKRAVSREDSARPGAHAKVKKLFVGGLKGDVAEGDLIEHFSQFGAVEKAEIIADKQSGKKRGFGFVYFQSHDAADKAAVVKFHPIQGHRVEVKKAVPKEDIHAGGGGARAARGGRGGGRGRGGGGGGGGRDQNGLAKGGGGGGGGYNSYGGYGGYGAYGGGGGGGGSYGGSDYGNGFGGFGSYSQHQSSYGPMKSGGGGGGGGSWGGRSNSGPYRGGYGGGYGGGSF",binding,binds
